The values below come from article PMC3063181.

Sequences of proteins named here, by UniProt entry; tags and fusion partners are left off.
UniProt O43747: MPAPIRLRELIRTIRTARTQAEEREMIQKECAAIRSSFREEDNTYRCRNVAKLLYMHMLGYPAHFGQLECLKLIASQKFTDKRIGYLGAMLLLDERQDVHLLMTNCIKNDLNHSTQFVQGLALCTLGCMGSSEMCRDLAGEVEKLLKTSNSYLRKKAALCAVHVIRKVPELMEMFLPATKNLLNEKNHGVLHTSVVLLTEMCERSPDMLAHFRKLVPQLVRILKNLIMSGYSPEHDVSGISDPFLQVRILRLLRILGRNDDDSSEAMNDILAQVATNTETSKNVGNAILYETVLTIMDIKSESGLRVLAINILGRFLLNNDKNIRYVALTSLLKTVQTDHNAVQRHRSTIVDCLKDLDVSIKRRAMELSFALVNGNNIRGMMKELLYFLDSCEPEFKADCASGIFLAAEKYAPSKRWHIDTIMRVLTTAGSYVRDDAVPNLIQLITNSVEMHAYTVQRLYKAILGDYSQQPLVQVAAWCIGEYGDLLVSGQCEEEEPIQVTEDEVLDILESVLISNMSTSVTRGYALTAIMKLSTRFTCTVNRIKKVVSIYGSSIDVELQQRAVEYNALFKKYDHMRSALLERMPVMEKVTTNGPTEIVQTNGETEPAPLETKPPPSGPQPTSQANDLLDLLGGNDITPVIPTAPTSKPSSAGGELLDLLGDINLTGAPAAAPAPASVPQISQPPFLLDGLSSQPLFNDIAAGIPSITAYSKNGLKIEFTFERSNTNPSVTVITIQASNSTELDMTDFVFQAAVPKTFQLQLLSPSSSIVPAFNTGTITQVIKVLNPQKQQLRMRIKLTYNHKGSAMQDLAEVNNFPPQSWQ
UniProt Q9P2D3: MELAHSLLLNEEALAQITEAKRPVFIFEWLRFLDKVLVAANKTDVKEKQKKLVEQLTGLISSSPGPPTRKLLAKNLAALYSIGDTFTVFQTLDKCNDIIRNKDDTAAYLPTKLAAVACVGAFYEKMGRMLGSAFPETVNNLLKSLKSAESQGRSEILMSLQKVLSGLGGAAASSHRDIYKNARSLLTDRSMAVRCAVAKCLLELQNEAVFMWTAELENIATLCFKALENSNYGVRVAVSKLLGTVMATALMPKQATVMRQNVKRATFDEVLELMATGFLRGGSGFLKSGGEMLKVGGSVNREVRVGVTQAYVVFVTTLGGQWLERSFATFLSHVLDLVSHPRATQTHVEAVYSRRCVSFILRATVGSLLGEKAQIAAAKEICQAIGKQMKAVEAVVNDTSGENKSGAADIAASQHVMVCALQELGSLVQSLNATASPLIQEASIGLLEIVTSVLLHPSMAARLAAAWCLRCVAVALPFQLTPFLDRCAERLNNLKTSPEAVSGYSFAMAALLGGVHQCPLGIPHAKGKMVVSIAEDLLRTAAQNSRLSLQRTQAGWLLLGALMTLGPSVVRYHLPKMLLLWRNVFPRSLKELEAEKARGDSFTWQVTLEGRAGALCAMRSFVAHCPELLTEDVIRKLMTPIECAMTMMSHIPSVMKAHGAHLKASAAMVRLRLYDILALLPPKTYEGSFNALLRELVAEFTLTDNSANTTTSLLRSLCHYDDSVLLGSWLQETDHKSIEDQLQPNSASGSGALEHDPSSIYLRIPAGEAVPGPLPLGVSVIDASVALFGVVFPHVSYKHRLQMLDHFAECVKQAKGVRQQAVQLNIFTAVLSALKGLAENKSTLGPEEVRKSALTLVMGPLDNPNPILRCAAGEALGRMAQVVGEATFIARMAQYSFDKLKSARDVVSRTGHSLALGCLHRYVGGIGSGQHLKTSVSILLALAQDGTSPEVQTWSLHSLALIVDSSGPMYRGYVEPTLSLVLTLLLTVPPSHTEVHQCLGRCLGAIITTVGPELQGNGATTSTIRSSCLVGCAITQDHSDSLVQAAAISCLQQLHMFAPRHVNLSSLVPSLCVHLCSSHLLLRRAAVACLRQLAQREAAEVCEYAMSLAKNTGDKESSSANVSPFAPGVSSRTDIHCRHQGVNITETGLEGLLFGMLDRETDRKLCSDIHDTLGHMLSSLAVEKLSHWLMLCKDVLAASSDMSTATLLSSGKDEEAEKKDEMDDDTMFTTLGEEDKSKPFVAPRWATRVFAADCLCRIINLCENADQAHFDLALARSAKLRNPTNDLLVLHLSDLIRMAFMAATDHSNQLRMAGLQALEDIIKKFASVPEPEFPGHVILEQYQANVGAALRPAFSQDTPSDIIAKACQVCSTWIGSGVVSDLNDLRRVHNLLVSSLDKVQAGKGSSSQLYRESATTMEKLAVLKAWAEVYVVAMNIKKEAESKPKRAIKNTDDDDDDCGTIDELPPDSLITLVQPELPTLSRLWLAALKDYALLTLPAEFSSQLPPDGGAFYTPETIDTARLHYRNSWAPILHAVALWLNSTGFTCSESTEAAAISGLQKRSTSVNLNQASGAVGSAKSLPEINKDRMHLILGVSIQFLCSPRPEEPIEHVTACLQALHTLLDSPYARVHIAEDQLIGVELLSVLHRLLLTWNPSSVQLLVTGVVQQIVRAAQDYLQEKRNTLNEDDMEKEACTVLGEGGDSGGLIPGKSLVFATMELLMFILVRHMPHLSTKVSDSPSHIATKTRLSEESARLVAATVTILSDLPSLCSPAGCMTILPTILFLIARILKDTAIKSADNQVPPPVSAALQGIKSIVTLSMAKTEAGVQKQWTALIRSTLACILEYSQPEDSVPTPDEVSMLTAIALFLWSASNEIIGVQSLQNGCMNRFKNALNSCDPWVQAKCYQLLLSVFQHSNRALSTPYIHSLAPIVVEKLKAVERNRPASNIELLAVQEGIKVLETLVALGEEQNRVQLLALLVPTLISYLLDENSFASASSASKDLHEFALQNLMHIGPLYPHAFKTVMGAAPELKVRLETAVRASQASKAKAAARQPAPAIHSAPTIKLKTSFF
UniProt P61966: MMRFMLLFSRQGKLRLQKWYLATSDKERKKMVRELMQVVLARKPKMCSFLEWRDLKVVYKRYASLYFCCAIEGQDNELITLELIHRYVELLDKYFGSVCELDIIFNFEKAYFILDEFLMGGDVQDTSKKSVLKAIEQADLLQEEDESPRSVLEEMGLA
UniProt Q9H1H9: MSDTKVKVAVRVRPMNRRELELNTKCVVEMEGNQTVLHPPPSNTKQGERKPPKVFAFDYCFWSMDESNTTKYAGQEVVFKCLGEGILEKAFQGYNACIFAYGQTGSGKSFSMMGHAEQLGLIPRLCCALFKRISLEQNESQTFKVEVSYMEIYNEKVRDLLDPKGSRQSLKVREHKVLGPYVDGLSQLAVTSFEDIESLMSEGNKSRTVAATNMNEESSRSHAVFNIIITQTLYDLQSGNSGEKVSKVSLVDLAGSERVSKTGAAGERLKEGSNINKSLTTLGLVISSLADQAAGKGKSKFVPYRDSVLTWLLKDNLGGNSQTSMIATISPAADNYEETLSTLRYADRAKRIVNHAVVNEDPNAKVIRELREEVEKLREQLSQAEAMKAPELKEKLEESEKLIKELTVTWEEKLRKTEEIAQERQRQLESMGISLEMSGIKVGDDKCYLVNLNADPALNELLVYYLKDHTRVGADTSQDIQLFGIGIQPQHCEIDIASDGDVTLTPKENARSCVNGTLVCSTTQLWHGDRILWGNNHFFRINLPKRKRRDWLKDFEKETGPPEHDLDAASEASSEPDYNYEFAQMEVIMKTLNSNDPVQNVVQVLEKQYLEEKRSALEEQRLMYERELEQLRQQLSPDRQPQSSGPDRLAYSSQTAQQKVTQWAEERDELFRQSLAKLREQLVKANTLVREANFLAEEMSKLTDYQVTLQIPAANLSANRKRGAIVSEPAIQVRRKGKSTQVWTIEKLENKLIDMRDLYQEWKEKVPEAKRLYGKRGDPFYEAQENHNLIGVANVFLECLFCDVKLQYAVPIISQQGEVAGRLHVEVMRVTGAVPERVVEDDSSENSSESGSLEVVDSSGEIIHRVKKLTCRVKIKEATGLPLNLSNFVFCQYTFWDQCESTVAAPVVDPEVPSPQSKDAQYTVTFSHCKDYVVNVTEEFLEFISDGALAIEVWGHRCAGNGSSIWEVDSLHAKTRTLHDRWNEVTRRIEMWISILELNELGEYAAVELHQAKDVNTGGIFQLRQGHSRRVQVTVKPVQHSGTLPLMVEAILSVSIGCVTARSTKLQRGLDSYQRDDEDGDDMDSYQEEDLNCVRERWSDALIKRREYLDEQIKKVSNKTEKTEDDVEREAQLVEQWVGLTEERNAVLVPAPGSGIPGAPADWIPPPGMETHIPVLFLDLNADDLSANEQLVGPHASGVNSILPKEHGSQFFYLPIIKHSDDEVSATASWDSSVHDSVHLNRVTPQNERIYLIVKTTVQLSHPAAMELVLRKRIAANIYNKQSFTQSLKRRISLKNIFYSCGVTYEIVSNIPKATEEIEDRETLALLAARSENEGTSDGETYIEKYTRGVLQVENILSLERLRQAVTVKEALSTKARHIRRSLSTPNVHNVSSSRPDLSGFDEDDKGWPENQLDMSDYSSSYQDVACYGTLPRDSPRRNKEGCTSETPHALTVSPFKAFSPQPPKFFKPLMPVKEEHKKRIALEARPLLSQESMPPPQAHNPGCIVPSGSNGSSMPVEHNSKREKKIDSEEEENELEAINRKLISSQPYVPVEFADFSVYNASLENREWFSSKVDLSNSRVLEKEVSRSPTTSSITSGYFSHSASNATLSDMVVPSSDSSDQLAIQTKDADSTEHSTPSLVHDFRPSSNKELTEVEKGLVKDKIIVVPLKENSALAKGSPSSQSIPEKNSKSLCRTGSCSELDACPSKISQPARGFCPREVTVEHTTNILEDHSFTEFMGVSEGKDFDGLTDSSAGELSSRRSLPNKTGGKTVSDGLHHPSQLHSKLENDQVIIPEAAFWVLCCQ

The target of assay [1] is Adaptor protein complex 1 (AP-1) γ-subunit, AP-1γ1 (human (endogenous in HeLa)) (UniProt O43747). In words: affinity purification with mass spectrometry; native IP of the AP-1γ subunit from HeLa cell lysate with a rabbit polyclonal antibody, protein A sepharose; standard or soft elution; SDS-PAGE, Coomassie, selected bands identified by mass spectrometry.
Assay [2] has the same target. Put plainly: affinity purification with mass spectrometry; native IP of AP-1γ from HeLa detergent lysate (MES-D buffer in experiments 1 and 2, PBS-T in experiment 3), protein A sepharose; standard or soft elution; tryptic solution digest without fractionation, LC-MSMS; three independent repeats.

No constants are given. Whether binding was seen depends on the method and setting. Binding seen in cells or lysates may run through a third protein. Here binding means that the protein was enriched with, or labelled near, the bait; the list need not be complete.

p200 (from UniProt Q9P2D3 1-2071): the binding entry in assay [1] and in assay [2] was “binds” throughout.

Regarding “AP-1σ1a subunit (from UniProt P61966 1-158)”, the binding entry in assay [2] is recorded as “binds”. On to KIF13A (from UniProt Q9H1H9 1-1805), for which the binding result in assay [2] was “binds”.

B1: AP-1µ1a subunit (protein, UniProt Q9BXS5 1-423)
chain: MSASAVYVLDLKGKVLICRNYRGDVDMSEVEHFMPILMEKEEEGMLSPILAHGGVRFMWIKHNNLYLVATSKKNACVSLVFSFLYKVVQVFSEYFKELEEESIRDNFVIIYELLDELMDFGYPQTTDSKILQEYITQEGHKLETGAPRPPATVTNAVSWRSEGIKYRKNEVFLDVIESVNLLVSANGNVLRSEIVGSIKMRVFLSGMPELRLGLNDKVLFDNTGRGKSKSVELEDVKFHQCVRLSRFENDRTISFIPPDGEFELMSYRLNTHVKPLIWIESVIEKHSHSRIEYMIKAKSQFKRRSTANNVEIHIPVPNDADSPKFKTTVGSVKWVPENSEIVWSIKSFPGGKEYLMRAHFGLPSVEAEDKEGKPPISVKFEIPYFTTSGIQVRYLKIIEKSGYQALPWVRYITQNGDYQLRTQ
As for B1, the binding entry in assay [1] and in assay [2] was “binds” in each case.

B2: AP-1σ1b subunit (protein, UniProt P56377 1-157)
chain: MQFMLLFSRQGKLRLQKWYVPLSDKEKKKITRELVQTVLARKPKMCSFLEWRDLKIVYKRYASLYFCCAIEDQDNELITLEIIHRYVELLDKYFGSVCELDIIFNFEKAYFILDEFLLGGEVQETSKKNVLKAIEQADLLQEEAETPRSVLEEIGLT
Consider B2, for which the binding entry in assay [2] is “binds”.

B3: AP-1σ1c subunit (protein, UniProt Q96PC3 1-154)
chain: MIHFILLFSRQGKLRLQKWYITLPDKERKKITREIVQIILSRGHRTSSFVDWKELKLVYKRYASLYFCCAIENQDNELLTLEIVHRYVELLDKYFGNVCELDIIFNFEKAYFILDEFIIGGEIQETSKKIAVKAIEDSDMLQEVSTVSQTMGER
As to B3, the binding result in assay [2] was “binds”.

B4: γ-Synergin (protein, UniProt Q9UMZ2 1-1314)
chain: MALRPGAGSGGGGAAGAGAGSAGGGGFMFPVAGGIRPPQAGLMPMQQQGFPMVSVMQPNMQGIMGMNYSSQMSQGPIAMQAGIPMGPMPAAGMPYLGQAPFLGMRPPGPQYTPDMQKQFAEEQQKRFEQQQKLLEEERKRRQFEEQKQKLRLLSSVKPKTGEKSRDDALEAIKGNLDGFSRDAKMHPTPASHPKKPGPSLEEKFLVSCDISTSGQEQIKLNTSEVGHKALGPGSSKKYPSLMASNGVAVDGCVSGTTTAEAENTSDQNLSIEESGVGVFPSQDPAQPRMPPWIYNESLVPDAYKKILETTMTPTGIDTAKLYPILMSSGLPRETLGQIWALANRTTPGKLTKEELYTVLAMIAVTQRGVPAMSPDALNQFPAAPIPTLSGFSMTLPTPVSQPTVIPSGPAGSMPLSLGQPVMGINLVGPVGGAAAQASSGFIPTYPANQVVKPEEDDFQDFQDASKSGSLDDSFSDFQELPASSKTSNSQHGNSAPSLLMPLPGTKALPSMDKYAVFKGIAADKSSENTVPPGDPGDKYSAFRELEQTAENKPLGESFAEFRSAGTDDGFTDFKTADSVSPLEPPTKDKTFPPSFPSGTIQQKQQTQVKNPLNLADLDMFSSVNCSSEKPLSFSAVFSTSKSVSTPQSTGSAATMTALAATKTSSLADDFGEFSLFGEYSGLAPVGEQDDFADFMAFSNSSISSEQKPDDKYDALKEEASPVPLTSNVGSTVKGGQNSTAASTKYDVFRQLSLEGSGLGVEDLKDNTPSGKSDDDFADFHSSKFSSINSDKSLGEKAVAFRHTKEDSASVKSLDLPSIGGSSVGKEDSEDALSVQFDMKLADVGGDLKHVMSDSSLDLPTVSGQHPPAADIEDLKYAAFGSYSSNFAVSTLTSYDWSDRDDATQGRKLSPFVLSAGSGSPSATSILQKKETSFGSSENITMTSLSKVTTFVSEDALPETTFPALASFKDTIPQTSEQKEYENRDYKDFTKQDLPTAERSQEATCPSPASSGASQETPNECSDDFGEFQSEKPKISKFDFLVATSQSKMKSSEEMIKSELATFDLSVQGSHKRSLSLGDKEISRSSPSPALEQPFRDRSNTLNEKPALPVIRDKYKDLTGEVEENERYAYEWQRCLGSALNVIKKANDTLNGISSSSVCTEVIQSAQGMEYLLGVVEVYRVTKRVELGIKATAVCSEKLQQLLKDIDKVWNNLIGFMSLATLTPDENSLDFSSCMLRPGIKNAQELACGVCLLNVDSRSRKEEKPAEEHPKKAFNSETDSFKLAYGGHQYHASCANFWINCVEPKPPGLVLPDLL
As to B4, the binding result in assay [1] and in assay [2] was “binds” each time.

B5: Aftiphilin (protein, UniProt Q6ULP2 1-936)
chain: MEPDIIRMYSSSPPPLDNGAEDDDDDEFGEFGGFSEVSPSGVGFVDFDTPDYTRPKEEFVPSNHFMPIHEFSENVDSLTSFKSIKNGNDKDITAELSAPVKGQSDVLLSTTSKEIISSEMLATSIDGMERPGNLNKVVEQRQNVGTLESFSPGDFRTNMNVVHQNKQLESCNGEKPPCLEILTNGFAVLETVNPQGTDDLDNVADSKGRKPLSTHSTEYNLDSVPSPAEEFADFATFSKKERIQLEEIECAVLNDREALTIRENNKINRVNELNSVKEVALGRSLDNKGDTDGEDQVCVSEISIVTNRGFSVEKQGLPTLQQDEFLQSGVQSKAWSLVDSADNSEAIRREQCKTEEKLDLLTSKCAHLCMDSVKTSDDEVGSPKEESRKFTNFQSPNIDPTEENDLDDSLSVKNGDSSNDFVTCNDINEDDFGDFGDFGSASGSTPPFVTGTQDSMSDATFEESSEHFPHFSEPGDDFGEFGDINAVSCQEETILTKSDLKQTSDNLSEECQLARKSSGTGTEPVAKLKNGQEGEIGHFDSVPNIQDDCNGFQDSDDFADFSSAGPSQVVDWNAFEDEQKDSCSWAAFGDQQATESHHRKEAWQSHRTDENIDTPGTPKTHSVPSATSKGAVASGHLQESATSVQTALLNRLERIFEACFPSILVPDAEEEVTSLKHLLETSTLPIKTREALPESGELLDVWTELQDIHDAHGLRYQWGGSHSNKKLLSSLGIDTRNILFTGNKKQPVIVPMYAAGLGMLEPTKEPLKPLSAAEKIASIGQTATMSPDMNTCTSDQFQESLPPVQFDWSSSGLTNPLDASGGSTLLNLDFFGPVDDSSSSSSTTIPGVDPELYELTTSKLEISTSSLKVTDAFARLMSTVEKTSTSTRKPKREEHLSEEAIKVIAGLPDLTFMHAKVLMFPATLTPSTSSQEKADG
On to B5, for which the binding result in assay [2] is “binds”.

B6: AP-1β subunit (β1) (protein, UniProt Q10567 1-949)
chain: MTDSKYFTTTKKGEIFELKAELNSDKKEKKKEAVKKVIASMTVGKDVSALFPDVVNCMQTDNLELKKLVYLYLMNYAKSQPDMAIMAVNTFVKDCEDPNPLIRALAVRTMGCIRVDKITEYLCEPLRKCLKDEDPYVRKTAAVCVAKLHDINAQLVEDQGFLDTLKDLISDSNPMVVANAVAALSEIAESHPSSNLLDLNPQSINKLLTALNECTEWGQIFILDCLANYMPKDDREAQSICERVTPRLSHANSAVVLSAVKVLMKFMEMLSKDLDYYGTLLKKLAPPLVTLLSAEPELQYVALRNINLIVQKRPEILKHEMKVFFVKYNDPIYVKLEKLDIMIRLASQANIAQVLAELKEYATEVDVDFVRKAVRAIGRCAIKVEQSAERCVSTLLDLIQTKVNYVVQEAIVVIKDIFRKYPNKYESVIATLCENLDSLDEPEARAAMIWIVGEYAERIDNADELLESFLEGFHDESTQVQLQLLTAIVKLFLKKPTETQELVQQVLSLATQDSDNPDLRDRGYIYWRLLSTDPVAAKEVVLAEKPLISEETDLIEPTLLDELICYIGTLASVYHKPPSAFVEGGRGVVHKSLPPRTASSESAESPETAPTGAPPGEQPDVIPAQGDLLGDLLNLDLGPPVSGPPLATSSVQMGAVDLLGGGLDSLMGDEPEGIGGTNFVAPPTAAVPANLGAPIGSGLSDLFDLTSGVGTLSGSYVAPKAVWLPAMKAKGLEISGTFTRQVGSISMDLQLTNKALQVMTDFAIQFNRNSFGLAPAAPLQVHAPLSPNQTVEISLPLSTVGSVMKMEPLNNLQVAVKNNIDVFYFSTLYPLHILFVEDGKMDRQMFLATWKDIPNENEAQFQIRDCPLNAEAASSKLQSSNIFTVAKRNVEGQDMLYQSLKLTNGIWVLAELRIQPGNPSCTDLELSLKCRAPEVSQHVYQAYETILKN
On to B6, for which the binding result in assay [1] and in assay [2] was “binds” in each case.
